The source of these data is PubChem BioAssay AID328 (DTP/NCI, 2004).

For this assay, the system named is BDF1 mice, P388 leukemia ip, median survival T/C. Briefly: NCI In Vivo Anticancer Drug Screen. Data for tumor model P388 Leukemia (intraperitoneal) in B6D2F1 (BDF1) mice. Particulars: T/C endpoint: median survival time, higher T/C = longer survival. In outline:
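Vehicle-dosed animals serve as the reference; survival of compound-dosed, tumour-implanted mice is divided by it.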

Where [1] appears, read: dose: 100.0 mg/kg/injection, schedule: Q01DX009 (ip), vehicle: saline with Tween-80.
The mark [2] stands for this setting: dose: 100.0 mg/kg/injection, schedule: Q01DX009 (ip), vehicle: saline.
The mark [3] stands for this setting: dose: 20.0 mg/kg/injection, schedule: Q04DX003 (ip), vehicle: saline.
[4] abbreviates: dose: 12.5 mg/kg/injection, schedule: Q04DX003 (ip), vehicle: saline with Tween-80.
[5] abbreviates: dose: 22.0 mg/kg/injection, schedule: Q04DX003 (ip), vehicle: saline with Tween-80.
Setting [6] is: dose: 25.0 mg/kg/injection, schedule: Q04DX003 (ip), vehicle: saline with Tween-80.
Where [7] appears, read: dose: 50.0 mg/kg/injection, schedule: Q04DX003 (ip), vehicle: saline with Tween-80.
[8] abbreviates: dose: 200.0 mg/kg/injection, schedule: Q01DX009 (ip), vehicle: saline with Tween-80.
Where [9] appears, read: dose: 200.0 mg/kg/injection, schedule: Q04DX003 (ip), vehicle: saline with Tween-80.

The list does not hold the whole screen: it is rich in T/C values a quarter to a half above the control, in often repeated tests (any T/C) and in doses without a T/C. Other doses and runs of a compound stand elsewhere. T/C: endpoint of the treated group in % of that of the vehicle group. Some entries give survivors of the animals treated and no T/C: the source holds a T/C of zero for them, seemingly a mark for toxic or unscored doses. Some doses without a T/C left all or most animals alive at the check, yet need not have been tolerated: the source hardly ever lists a survival T/C far under the control, and the zero likely stands for such cases as well. Counts of survivors are from the toxicity check (mostly the fifth day) where no day follows; animals may have died later. Schedules are NCI's codes, read here as Q, the interval in days (D) or hours (H), X, the number of doses. Some doses were run more than once; their values stand side by side, smallest first. For survival time, this PubChem deposit counts one and a half times the control or more as active, and values a quarter to a half above the control carry no call in these data; other NCI protocols may use other cut-offs. Some T/C values are followed by the survivors on the day toxicity was checked, most often the fifth; without a count, all were alive then.

`CCCCCCCCCCC(=O)[O][Sn]([CH](C)C)([CH](C)C)[CH](C)C`: the survivor count (dose: 50.0 mg/kg/injection, schedule: Q01DX009 (ip), vehicle: saline + Tween-80 + alcohol) is listed as 0 of 6.
`Cc1ccc(C)c(CCN)c1`: under setting [1], the survivor count is listed as 4 of 6.
On to `O=C(/C=C/c1ccc2c(c1)OCO2)/C=C/c1ccc2c(c1)OCO2`, for which the survivor count is recorded as 5 of 6 (dose: 50.0 mg/kg/injection, schedule: Q01DX009 (ip), vehicle: saline); 6 of 6 under setting [2]; 5 of 6 (dose: 300.0 mg/kg/injection, schedule: Q01DX009 (ip), vehicle: saline); 6 of 6 (dose: 400.0 mg/kg/injection, schedule: Q04DX003 (ip), vehicle: saline).
In the case of `O=C(C[n+]1ccc2ccccc2c1)c1ccc(Br)cc1`, the survivor count is given as 1 of 6 (dose: 112.5 mg/kg/injection, schedule: Q04DX003 (ip), vehicle: saline); 3 of 6 (dose: 115.0 mg/kg/injection, schedule: Q01DX009 (ip), vehicle: saline); 1 of 6 (dose: 170.0 mg/kg/injection, schedule: Q01DX009 (ip), vehicle: saline); 0 of 6 (dose: 225.0 mg/kg/injection, schedule: Q04DX003 (ip), vehicle: saline).
In the case of `C=CCOCCN1CCN(CCCN2c3ccccc3Sc3ccc(C(F)(F)F)cc32)CC1`, the T/C runs as follows: (dose: 5.0 mg/kg/injection, schedule: Q04DX003 (ip), vehicle: saline) 125 % of control; (dose: 10.0 mg/kg/injection, schedule: Q04DX003 (ip), vehicle: saline) 142 % of control; under setting [3], 144 % of control. The survivor count was 6 of 6 under setting [3]; 3 of 6 and 5 of 6 (dose: 40.0 mg/kg/injection, schedule: Q04DX003 (ip), vehicle: saline).
Regarding `COc1cccc(CC2=NCCc3cc(OC)c(OC)cc32)c1`, the survivor count runs as follows: (dose: 25.0 mg/kg/injection, schedule: Q01DX009 (ip), vehicle: saline) 1 of 6; under setting [2], 1 of 6; (dose: 100.0 mg/kg/injection, schedule: Q04DX003 (ip), vehicle: saline) 5 of 6; (dose: 200.0 mg/kg/injection, schedule: Q01DX009 (ip), vehicle: saline) 0 of 6.
Take `ClC1=NC(Cl)C(Cl)=N/C1=N\c1ncn[nH]1` (stereo not drawn): the T/C is, setting by setting: (dose: 11.0 mg/kg/injection, schedule: Q01DX009 (ip), vehicle: saline with Tween-80) 133 % of control; (dose: 12.5 mg/kg/injection, schedule: Q01DX009 (ip), vehicle: saline with Tween-80) 135 % of control; under setting [4], 125 % of control; (dose: 16.5 mg/kg/injection, schedule: Q01DX009 (ip), vehicle: saline with Tween-80) 133 % of control; under setting [5], 127 % of control; (dose: 25.0 mg/kg/injection, schedule: Q01DX009 (ip), vehicle: saline with Tween-80) 133 and 140 % of control. The T/C under setting [6] is 135 % of control; the T/C (dose: 37.5 mg/kg/injection, schedule: Q01DX009 (ip), vehicle: saline with Tween-80) is 138 % of control; the T/C under setting [7] is 127 and 130 % of control [5 of 6 alive]. The survivor count (dose: 75.0 mg/kg/injection, schedule: Q04DX003 (ip), vehicle: saline with Tween-80) was 6 of 6.
Take `O=C(O)CCSc1ncnc2nc[nH]c12`: the survivor count by setting is: under setting [1], 6 of 6; under setting [8], 6 of 6; (dose: 400.0 mg/kg/injection, schedule: Q01DX009 (ip), vehicle: saline with Tween-80) 5 of 6.
In the case of `O=[N+]([O-])c1ccc(N2CCN(Cc3ccccc3)CC2)c2c1no[n+]2[O-]`, under “dose: 150.0 mg/kg/injection, schedule: Q04DX003 (ip), vehicle: saline with Tween-80”, the T/C was 131 % of control.
Turning to `COC1OC(C)C(O)C(O)[CH]1[Hg][O]C(C)=O` (stereo not drawn), the survivor count (dose: 3.0 mg/kg/injection, schedule: Q01DX009 (ip), vehicle: saline) is listed as 5 of 6; the survivor count (dose: 6.0 mg/kg/injection, schedule: Q01DX009 (ip), vehicle: saline) is on record as 5 of 6; the survivor count (dose: 12.0 mg/kg/injection, schedule: Q01DX009 (ip), vehicle: saline) was 3 of 6.
With `C[N+](C)(C)c1ccc2c(c1)CCC/C2=N\N`, the survivor count is, setting by setting: under setting [4], 2 of 6; under setting [6], 0 of 6; (dose: 100.0 mg/kg/injection, schedule: Q04DX003 (ip), vehicle: saline with Tween-80) 0 of 6; under setting [9], 0 of 6; (dose: 400.0 mg/kg/injection, schedule: Q04DX003 (ip), vehicle: saline with Tween-80) 0 of 6.
Turning to `CCOC1CCC(C(C)=O)C(C#N)(C#N)C1(C#N)C#N` (stereo not drawn), the T/C (dose: 12.5 mg/kg/injection, schedule: Q01DX001 (ip), vehicle: saline with Tween-80) was 126 % of control and the T/C (dose: 50.0 mg/kg/injection, schedule: Q01DX001 (ip), vehicle: saline with Tween-80) was 126 % of control. Further, for the setting “dose: 100.0 mg/kg/injection, schedule: Q01DX001 (ip), vehicle: saline with Tween-80”, the survivor count was 0 of 6.
Consider `C=C1C(=O)OC2/C=C(\C)C3(O)C=CC(C)(CC(OC(=O)C(C)C)C12)O3` (stereo not drawn), for which, under “dose: 20.0 mg/kg/injection, schedule: Q01DX009 (ip), vehicle: saline”, the survivor count is given as 3 of 6.
For the compound `Clc1c(CBr)c(Cl)c(CBr)c(Cl)c1CBr`, the survivor count (dose: 50.0 mg/kg/injection, schedule: Q01DX009 (ip), vehicle: Klucel (hydroxypropylcellulose) (HPC)) was 2 of 6.
In the case of `COC(=O)[C@@H]1[C@H](O)[C@H](C)[C@H](O)[C@H](C)/C=C\C=C(C)C(=O)Nc2c(C)c(OC(C)=O)c3c(c2O)C(=O)C(C)=C2OCOC(=C23)C(C)=C[C@@](C)(O)[C@H](O)[C@@H](C)[C@H]1OC(C)=O`, the T/C (dose: 400.0 mg/kg/injection, schedule: Q01DX009 (ip), vehicle: Klucel (hydroxypropylcellulose) (HPC)) was 128 % of control.
As to `COc1cccc(/C=C/C(=O)c2ccc(Cl)cc2)c1OC`, under setting [8], the survivor count is given as 6 of 6.
As for `COc1ccc(Cc2c3cc(OC)c(OC)cc3cc[n+]2C)cc1OC`, the survivor count is recorded as 6 of 6 under setting [7], 0 of 6 under setting [1] and 1 of 6 under setting [9].
`CNC(=N)c1ccc(NC(=N)c2ccc(NC(=N)c3ccc(NC(=O)Nc4ccc(C#N)cc4)cc3)cc2)cc1`: the T/C is, setting by setting: (dose: 6.0 mg/kg/injection, schedule: Q04DX003 (ip), vehicle: saline with Tween-80) 126 % of control; (dose: 9.0 mg/kg/injection, schedule: Q04DX003 (ip), vehicle: saline with Tween-80) 145 and 146 % of control; (dose: 10.5 mg/kg/injection, schedule: Q01DX009 (ip), vehicle: saline with Tween-80) 142 % of control; under setting [5], 145 % of control. Also, the survivor count is, setting by setting: (dose: 75.0 mg/kg/injection, schedule: Q01DX009 (ip), vehicle: saline with Tween-80) 6 of 6; (dose: 112.0 mg/kg/injection, schedule: Q04DX003 (ip), vehicle: saline with Tween-80) 2 of 6; (dose: 150.0 mg/kg/injection, schedule: Q01DX009 (ip), vehicle: saline with Tween-80) 0 of 6.
As to `Cc1cc(C)c(N)c(Br)c1`, the survivor count is, setting by setting: (dose: 200.0 mg/kg/injection, schedule: Q04DX003 (ip), vehicle: other) 1 of 6; (dose: 400.0 mg/kg/injection, schedule: Q04DX003 (ip), vehicle: other) 0 of 6.
`O=C(Nc1ccc(C2=NCCCN2)cc1)c1ccc(C(=O)Nc2ccc(C3=NCCCN3)cc2)cc1`: the T/C (dose: 5.8 mg/kg/injection, schedule: Q04DX003 (ip), vehicle: saline with Tween-80) is 143 % of control. Also, the survivor count (dose: 50.0 mg/kg/injection, schedule: Q04DX003 (ip), vehicle: other) is 5 of 8.
For the compound `O=C1NCCN1c1cccc([N+](=O)[O-])c1`, the survivor count (dose: 100.0 mg/kg/injection, schedule: Q04DX003 (ip), vehicle: Klucel (hydroxypropylcellulose) (HPC)) is listed as 4 of 6.
